# ± gives the standard deviation. Only a part is listed here, and it is no random draw. The uncertainty is large for many entries.
# Test system: MIWI (PIWIL1) piRISC loaded with piRNA #2 (30 nt)
# Assay: pre-steady-state target cleavage rate (min^-1); MIWI and MILI are mouse PIWI proteins and EfPiwi is from a freshwater sponge; tags in brackets are library labels; higher = faster piRNA-guided slicing of the target
# Settings: guide: piRNA #2 5'p-UUAGGUAACCCAGUAGAUCCAGAGGAAUUC; auxiliary factor: 500 nM mouse GTSF1
# Method: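 Cleave-'n-Seq: a library of target RNAs (target site embedded in constant flanks, ACAGCATTCCGCGTTAGTGATATCCG... 5' flank; DNA-blocked outside the site) at 0.1 nM was incubated with 1 nM active mouse MILI or MIWI piRISC (synthetic 5'-monophosphorylated piRNA guide) with or without 500 nM mouse GTSF1 at 33 °C for 1 min to 16 h. Uncleaved targets were sequenced and normalised to non-target controls, and the pooled three trials were fitted to a burst-and-steady-state model to give the pre-steady-state cleavage rate (min^-1; k3 is constrained to at most 1e-4). Sequence is the target site only; target names encode pairing extent (gX:gY) and contiguous / 1-mismatch / 2-mismatch / bulge geometry. Fits with R² ≤ 0 are excluded.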
row,Sequence,pre-steady-state target cleavage rate
1,CUUAAGGAGUGGAUCUUACUGGGUUACCUAA,0.000234 ± 0.021
2,CUUAAGGAGACGUUCUACUGGGUUACCUUA,0.000888 ± 0.0069
3,CUUAAGGAGAGGAUCUACUGGAGUUACCUAA,0.00169 ± 0.0084
4,CUUAAGGAGACGAUCUAGUGGCUUACCUAA,0.000127 ± 0.024
5,CUUAAGGAGACCUAGUACUGGGUUACCUAG [g2:g15:cont:t1G],0.00118 ± 0.0084
6,CUUAAGGAGACCAUCUACCUGGGUUACCUAA,0.00225 ± 0.0038
7,CUUAAGGAGACGUUCUACUGGGUUACCUAA,0.00134 ± 0.0058
8,CUUUUCCUCUGGAUCUAGACGGUUACCUAA,0.000724 ± 0.012
9,CUUAAGGACUGGUUCUACUGGGUUUCCUAA,0.007 ± 0.011
10,CUUAAGGAGACCUUCUACUGGCAAACCUAA,0.000684 ± 0.015
11,CUUAAGGAGAGGACUCUACUGGGUUACCUAA,0.00138 ± 0.011
12,CUUAAGGAGACCUUCUACUGGAGUUACCUAA,0.00256 ± 0.0067
13,CUUAAGGAGACCAUCUACUGGGUUAGCUAA,0.00126 ± 0.004
14,CAAUUCCUCUCGGAUCUACUGGGUUACCUAA,0.506 ± 0.065
15,CUUAAGGAGUGCAUCUACUGGCUUACCUAA,0.000521 ± 0.016
16,CUAUUCCUCUCGAUCUACUCGGUUACCUAA,0.196 ± 0.017
17,CUUAAGGACUGUAUCUACUGGGUUACCUAA,0.00763 ± 0.017
18,CUUAAGGAGACCUAGUUACUGGGUUACCUAA,0.00113 ± 0.006
19,CUUAAGGAGACGUUCUAGUGGGUUACCUAA,0.000284 ± 0.022
20,CUUAAGGAGAGGAUCUACUCGGUUACCUUA,0.000165 ± 0.044
21,CUUAAGGAGACCUACUCACUGGGUUACCUAA,0.00136 ± 0.0066
22,CUUAAGGAGACGAUCUACUCGGUUACCUUA,0.000528 ± 0.014
23,CUAUUCCUCUGGAUACUACUGGGUUACCUAA,0.422 ± 0.056

row,Sequence,pre-steady-state target cleavage rate
1,CUUAAGGAGACCAUCUCUGGGUUACCUAA,0.00213 ± 0.006
2,GAAUUCCUCUGGAUCUUCUGGGAUACCUAA,0.108 ± 0.018
3,CUUAAGGAGACGCAUCUACUGGGUUACCUAA,0.00158 ± 0.0051
4,CUUAAGCUCUGGAUCUACUGCGGUUACCUAA,0.000174 ± 0.027
5,CUUAAGGAGACCUAGAAUGGGUUACCUAA,0.000624 ± 0.014
6,CUUAAGGAGUGGAGUCUACUGGGUUACCUAA,0.00527 ± 0.0059
7,CUUAAGGAGACGAUCUACAGGGUUACCUUA,0.00188 ± 0.0071
8,CAAUUCCUCUGGAUCUAUCUGGGUUACCUAA,0.00387 ± 0.0041
9,CUAUUCCUCUCCAUCUACUGGGUUACCUAA,0.647 ± 0.051
10,CUUAACCUCUGGAUCAACUCGGUUACCUAA,0.0679 ± 0.013
11,CUUAAGGAGUGGAUCUACUGGGUUCCUAA,0.00101 ± 0.0083
12,CUUAAGGAGUGGAUCUACUGGGUACCUAA,0.000194 ± 0.022
13,CUUAACCUCUGGAUGUUCUGGGUUACCUAA,0.244 ± 0.019
14,CUUAAGGAGACCUUCUACCGGGUUACCUAA,0.00321 ± 0.0042
15,CUUAUCCUCUGGAUCUACUGUGGUUACCUAA,0.00103 ± 0.01
16,CUUAAGGAGUGGAUCUACUGGGUAACCUUA,0.00262 ± 0.0066
17,CUUAAGGAGACCUUCUACGGGUUACCUAA,0.00139 ± 0.0059
18,CUUAAGGAGACCAUCUACUGCCUUACCUAA,0.00137 ± 0.0045
19,CUUAAGGAGACCUAGAACUGGGUUACCUUA,0.000423 ± 0.0089
20,CUUAAGGAGUCGAUCUACUGGGUUACCAAA,0.000232 ± 0.037
21,CUUAAGGAGUGGAUCUACUGGGAUUCCUAA,0.00101 ± 0.0095
22,CUUAAGGACUGGAUGUACUGGGUAACCUAA,0.00256 ± 0.014
23,CUUAAGGAGACCAUCUGCUGGGUUACCUAA,0.00263 ± 0.0034

row,Sequence,pre-steady-state target cleavage rate
1,CUUAAGGAGACCUAGUACUGGGUUACCAUAA,0.00115 ± 0.013
2,CAAUUCCUCUGGAUCUGACUGGGUUACCUAA,0.00176 ± 0.0059
3,CUUAAGGAGACCAUCUACUGGGUUACGAUA,0.000215 ± 0.017
4,CUUAACCUCUGGAUCUACUGGCAAACCUAA,0.00179 ± 0.0058
5,CUUAAGGAGACCUACCUACUGGGUUACCUAA,0.00174 ± 0.0083
6,CUUAAGGUCUGGAUCUACUGCGGUUACCUAA,0.000228 ± 0.016
7,CUUAACCUCUGGAUCUUCUGGGUUUCCUAA,0.042 ± 0.0092
8,CUAUUCCUCUGGAUCUACUAGGGUUACCUAA,0.00272 ± 0.0049
9,CUUAAGGAGUGGAUCUACUGGGCUUACCUAA,0.00121 ± 0.016
10,CUAUUCCUCUCGAUCAACUGGGUUACCUAA,0.637 ± 0.047
11,CUUAACCUCUGGUUCUACUGCGUUACCUAA,0.754 ± 0.077
12,CUUAAGGACUGGAUCUAGUGGGUAACCUAA,0.00329 ± 0.01
13,CUUAAGGAGACAAUCUACUGGGUUACCUAA,0.003 ± 0.0043
14,CUUAAGGAGACCUUCUACUGGGUUACGAUA,0.000669 ± 0.0099
15,CUUAAGGAGACCUAGCACUGGGUUACCUAA,0.00117 ± 0.007
16,CUUAAGGAGACCAUCAUGUGGGUUACCUAA,0.00064 ± 0.016
17,CUUAAGGAGAGGAUCUACAGGGUAACCUAA,0.000448 ± 0.019
18,CUUUUCCUCUGCAUCUACUGCGUUACCUAA,0.49 ± 0.037
19,CUUAAGGAGAGGAACUACUCGGUUACCUAA,0.000276 ± 0.021
20,CUUAAGGUCUGGAACUACUGGGUAACCUAA,0.0271 ± 0.028
21,CUUAAGGAGAGGAUCUACAGGGAUACCUAA,0.00063 ± 0.02
22,CUUAAGGAGACCUUCUACACCGUUACCUAA,0.00352 ± 0.0035
23,CUUAAGGAGACCUAGAACUGGGUAUCCUAA,0.000242 ± 0.022

# An excerpt from further up, as a working copy:
row,Sequence,pre-steady-state target cleavage rate
20,CUUAAGGAGUCGAUCUACUGGGUUACCAAA,0.000232 ± 0.037
21,CUUAAGGAGUGGAUCUACUGGGAUUCCUAA,0.00101 ± 0.0095
22,CUUAAGGACUGGAUGUACUGGGUAACCUAA,0.00256 ± 0.014
23,CUUAAGGAGACCAUCUGCUGGGUUACCUAA,0.00263 ± 0.0034
1,CUUAAGGAGACCUAGUACUGGGUUACCAUAA,0.00115 ± 0.013
2,CAAUUCCUCUGGAUCUGACUGGGUUACCUAA,0.00176 ± 0.0059
3,CUUAAGGAGACCAUCUACUGGGUUACGAUA,0.000215 ± 0.017
4,CUUAACCUCUGGAUCUACUGGCAAACCUAA,0.00179 ± 0.0058
5,CUUAAGGAGACCUACCUACUGGGUUACCUAA,0.00174 ± 0.0083
6,CUUAAGGUCUGGAUCUACUGCGGUUACCUAA,0.000228 ± 0.016
7,CUUAACCUCUGGAUCUUCUGGGUUUCCUAA,0.042 ± 0.0092
8,CUAUUCCUCUGGAUCUACUAGGGUUACCUAA,0.00272 ± 0.0049
9,CUUAAGGAGUGGAUCUACUGGGCUUACCUAA,0.00121 ± 0.016
10,CUAUUCCUCUCGAUCAACUGGGUUACCUAA,0.637 ± 0.047
11,CUUAACCUCUGGUUCUACUGCGUUACCUAA,0.754 ± 0.077
12,CUUAAGGACUGGAUCUAGUGGGUAACCUAA,0.00329 ± 0.01
13,CUUAAGGAGACAAUCUACUGGGUUACCUAA,0.003 ± 0.0043
14,CUUAAGGAGACCUUCUACUGGGUUACGAUA,0.000669 ± 0.0099
15,CUUAAGGAGACCUAGCACUGGGUUACCUAA,0.00117 ± 0.007
16,CUUAAGGAGACCAUCAUGUGGGUUACCUAA,0.00064 ± 0.016
17,CUUAAGGAGAGGAUCUACAGGGUAACCUAA,0.000448 ± 0.019
18,CUUUUCCUCUGCAUCUACUGCGUUACCUAA,0.49 ± 0.037
19,CUUAAGGAGAGGAACUACUCGGUUACCUAA,0.000276 ± 0.021
20,CUUAAGGUCUGGAACUACUGGGUAACCUAA,0.0271 ± 0.028
21,CUUAAGGAGAGGAUCUACAGGGAUACCUAA,0.00063 ± 0.02

# The list goes on:

row,Sequence,pre-steady-state target cleavage rate
1,CUUAAGGAGUGGAACUACUGGGUAACCUAA,0.000859 ± 0.019
2,CUUAAGGAGUGGAUCUAGAGGGUUACCUAA,0.00083 ± 0.011
3,CUUAAGGAGACCUACUACUGGGUUACCUCA,0.000855 ± 0.01
4,CUUAAGGACUGGAUCUACUGGGUUAACUAA,0.116 ± 0.042
5,CUUAAGGAGACCAUCUACUGGGUUACCUAA [g2:g18:cont:t1A],0.0028 ± 0.0042
6,CUUAAGGAGACCUACUACUGGGAUACCUAA,0.00133 ± 0.0043
7,CUUAAGGUCUGGAUCUUCUGGGUAACCUAA,0.0193 ± 0.011
8,CUUAAGGAGACCUAGUACUGGGUUAUCUAA,0.00107 ± 0.0062
9,CUUAAGGAGACCAUCUACUGGGAUACCAAA,0.000301 ± 0.023
10,CUUAAGGAGUGGAUCUUCAGGGUUACCUAA,0.000511 ± 0.011
11,CUUAAGGAGAGGAUCUACUGCGUUACCAAA,0.00048 ± 0.015
12,CUUAAGGAGACGAUCUUACUGGGUUACCUAA,0.000932 ± 0.0056
13,CUUAUCCUCUGGAUCUACAGGGUUACCAAA,0.237 ± 0.03
14,CUUAAGGAGACCUACUACUGGGUUACCUGA,0.000809 ± 0.0093
15,CUUAAGGAGACGGUCUACUGGGUUACCUAA,0.000638 ± 0.012
16,CUUAAGGAGAGGAUCUACUGGGAUUCCUAA,0.000598 ± 0.015
17,CUUAAGGAGACCUAGAUCUGCGUUACCUAA,0.00259 ± 0.0036
18,CUUAACCUCUGGUUCUACUGGCUUACCUAA,0.112 ± 0.014
19,CUUAAGCUCUGGAUCUUACUGGGUUACCUAA,0.000838 ± 0.012
20,CUUAAGGAGACCUUCUACUGGGUGUACCUAA,0.00138 ± 0.0074
21,CUUAAGGAGACCUACUACAGGGUUACGUAA,0.00177 ± 0.0063
22,CUUAAGGAGACGAUCUACUGGGUUAACCUAA,0.00161 ± 0.0034
